Laboratory results published in paper PMC11597393.
These are yes or no findings as the source states them, for the method shown. In cells and extracts the contact can be indirect. Some entries that bind do so weakly or less than the wild type.

Amino acid sequences for entries named in this document (tags omitted). Residues count along the entry.
UniProt Q9QUK6, residues 26-835: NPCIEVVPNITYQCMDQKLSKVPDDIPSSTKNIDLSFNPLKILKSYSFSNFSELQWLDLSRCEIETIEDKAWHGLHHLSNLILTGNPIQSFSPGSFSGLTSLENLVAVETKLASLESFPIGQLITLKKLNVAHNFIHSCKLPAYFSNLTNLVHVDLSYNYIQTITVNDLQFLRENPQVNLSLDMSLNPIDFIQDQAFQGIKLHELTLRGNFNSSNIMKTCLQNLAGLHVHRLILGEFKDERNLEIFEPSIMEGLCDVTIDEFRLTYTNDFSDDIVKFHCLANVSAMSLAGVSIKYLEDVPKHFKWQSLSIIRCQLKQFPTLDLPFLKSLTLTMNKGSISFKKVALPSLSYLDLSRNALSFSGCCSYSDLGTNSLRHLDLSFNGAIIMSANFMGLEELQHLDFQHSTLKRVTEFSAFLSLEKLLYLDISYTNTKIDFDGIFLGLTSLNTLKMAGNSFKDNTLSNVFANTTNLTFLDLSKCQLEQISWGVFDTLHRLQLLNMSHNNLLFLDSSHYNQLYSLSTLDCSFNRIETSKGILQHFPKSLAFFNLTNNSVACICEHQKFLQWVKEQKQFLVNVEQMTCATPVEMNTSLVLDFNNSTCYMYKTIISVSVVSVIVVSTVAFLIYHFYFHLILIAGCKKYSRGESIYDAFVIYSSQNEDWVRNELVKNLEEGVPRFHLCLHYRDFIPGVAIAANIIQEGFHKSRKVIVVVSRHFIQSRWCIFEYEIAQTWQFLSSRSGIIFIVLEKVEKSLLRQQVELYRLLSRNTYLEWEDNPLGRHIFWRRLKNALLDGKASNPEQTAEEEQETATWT
UniProt P22366: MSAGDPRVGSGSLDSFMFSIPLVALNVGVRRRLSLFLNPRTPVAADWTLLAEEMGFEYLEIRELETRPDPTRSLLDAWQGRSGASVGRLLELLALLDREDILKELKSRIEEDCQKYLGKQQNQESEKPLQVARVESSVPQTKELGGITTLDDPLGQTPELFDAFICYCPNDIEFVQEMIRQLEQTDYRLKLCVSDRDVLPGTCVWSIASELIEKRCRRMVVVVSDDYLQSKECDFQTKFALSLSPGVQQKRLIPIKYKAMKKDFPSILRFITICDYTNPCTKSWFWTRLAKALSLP

Molecular target: Toll-like receptor 4 (mouse (endogenous in RAW 264.7)) (UniProt Q9QUK6)
Assay: co-IP; lysates of RAW 264.7 cells exposed to LPS and/or EPS-LM (50 and 200 µg/mL) for 24 h; anti-TLR4 antibody on Protein A+G magnetic beads, overnight at 4 °C; MyD88 and TLR4 detected by immunoblot

With “myeloid differentiation primary response gene 88 (from UniProt P22366 1-296)” the binding was “binds”.
